No constants are given. Whether binding was seen depends on the method and setting. Binding seen in cells or lysates may run through a third protein. Some binding calls cover weakened binding; strength is not graded here. For some of these results: Tags and fused reporters may be left off the sequences shown.
Key:
[1] = target: T1, Myc-tagged fumarylacetoacetate hydrolase (FAH) (UniProt P16930); experiment: co-IP; HEK293 cells co-transfected with Myc-FAH and Flag-Cdh1, harvested after 48 h; lysis in 50 mM Tris-HCl pH 7.6, 150 mM NaCl, 1 mM EDTA, 1% Triton X-100, 1 mM PMSF; 2-3 mg lysate with anti-Myc or anti-Flag antibody at 4 °C overnight, then protein agarose beads; blotted with the other tag's antibody
T1 sequence: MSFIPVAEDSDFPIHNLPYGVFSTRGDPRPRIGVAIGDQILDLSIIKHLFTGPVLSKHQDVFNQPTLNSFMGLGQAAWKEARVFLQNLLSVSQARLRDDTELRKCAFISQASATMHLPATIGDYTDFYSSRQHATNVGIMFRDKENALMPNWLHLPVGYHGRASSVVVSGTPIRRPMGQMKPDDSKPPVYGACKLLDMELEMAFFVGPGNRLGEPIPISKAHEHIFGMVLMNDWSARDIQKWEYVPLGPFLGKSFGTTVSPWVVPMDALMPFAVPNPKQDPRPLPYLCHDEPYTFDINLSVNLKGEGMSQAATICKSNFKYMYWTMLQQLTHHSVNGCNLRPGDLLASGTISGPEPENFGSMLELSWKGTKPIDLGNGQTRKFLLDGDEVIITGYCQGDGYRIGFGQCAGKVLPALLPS

The chains behind the UniProt entries cited, without tags or fusion partners.
UniProt Q9UM11: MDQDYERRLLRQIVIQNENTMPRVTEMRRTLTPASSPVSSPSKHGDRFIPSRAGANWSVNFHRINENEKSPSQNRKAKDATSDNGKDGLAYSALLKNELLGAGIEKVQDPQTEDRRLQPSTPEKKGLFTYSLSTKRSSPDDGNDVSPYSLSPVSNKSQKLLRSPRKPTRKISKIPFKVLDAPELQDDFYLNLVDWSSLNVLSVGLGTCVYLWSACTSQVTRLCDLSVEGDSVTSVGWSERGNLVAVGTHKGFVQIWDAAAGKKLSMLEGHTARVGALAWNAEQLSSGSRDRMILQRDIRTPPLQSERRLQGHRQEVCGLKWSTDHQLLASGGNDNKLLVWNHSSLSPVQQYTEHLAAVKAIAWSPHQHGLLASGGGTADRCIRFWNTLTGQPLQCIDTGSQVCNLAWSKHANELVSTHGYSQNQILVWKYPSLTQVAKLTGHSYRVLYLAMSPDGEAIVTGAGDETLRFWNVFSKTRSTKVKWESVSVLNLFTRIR

[2] = target: T2, endogenous fumarylacetoacetate hydrolase (FAH) (human (endogenous in HHSteCs)) (UniProt P16930); experiment: co-IP; endogenous proteins in HHSteCs treated with MG132 for 8 h before harvesting; about 5 mg lysate with anti-FAH or anti-Cdh1 antibody; blotted with FAH or Cdh1 antibodies
T2 sequence: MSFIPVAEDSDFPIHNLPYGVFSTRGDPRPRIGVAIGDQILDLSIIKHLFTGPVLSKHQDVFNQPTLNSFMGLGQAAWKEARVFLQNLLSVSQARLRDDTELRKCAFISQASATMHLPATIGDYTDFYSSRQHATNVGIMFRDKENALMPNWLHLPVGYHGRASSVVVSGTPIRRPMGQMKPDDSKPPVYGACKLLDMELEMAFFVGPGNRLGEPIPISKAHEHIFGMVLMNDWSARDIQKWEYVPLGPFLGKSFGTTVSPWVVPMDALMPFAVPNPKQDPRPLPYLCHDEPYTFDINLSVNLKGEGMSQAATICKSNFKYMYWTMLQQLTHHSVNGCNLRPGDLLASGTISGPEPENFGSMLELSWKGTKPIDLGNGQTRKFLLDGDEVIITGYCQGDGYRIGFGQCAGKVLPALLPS

[3] = target: Flag-tagged Cdh1 (UniProt Q9UM11); experiment: co-IP; HEK293 cells co-transfected with Myc-FAH and Flag-Cdh1, harvested after 48 h; lysis in 50 mM Tris-HCl pH 7.6, 150 mM NaCl, 1 mM EDTA, 1% Triton X-100, 1 mM PMSF; 2-3 mg lysate with anti-Myc or anti-Flag antibody at 4 °C overnight, then protein agarose beads; blotted with the other tag's antibody
[4] = target: endogenous Cdh1 (human (endogenous in HHSteCs)) (UniProt Q9UM11); experiment: co-IP; endogenous proteins in HHSteCs treated with MG132 for 8 h before harvesting; about 5 mg lysate with anti-FAH or anti-Cdh1 antibody; blotted with FAH or Cdh1 antibodies

Flag-tagged Cdh1 (from UniProt Q9UM11 1-496)
binding [1]: binds

endogenous Cdh1 (from UniProt Q9UM11 1-496)
binding [2]: binds

B1: Myc-tagged fumarylacetoacetate hydrolase (FAH) (enzyme, UniProt P16930 1-419)
chain: MSFIPVAEDSDFPIHNLPYGVFSTRGDPRPRIGVAIGDQILDLSIIKHLFTGPVLSKHQDVFNQPTLNSFMGLGQAAWKEARVFLQNLLSVSQARLRDDTELRKCAFISQASATMHLPATIGDYTDFYSSRQHATNVGIMFRDKENALMPNWLHLPVGYHGRASSVVVSGTPIRRPMGQMKPDDSKPPVYGACKLLDMELEMAFFVGPGNRLGEPIPISKAHEHIFGMVLMNDWSARDIQKWEYVPLGPFLGKSFGTTVSPWVVPMDALMPFAVPNPKQDPRPLPYLCHDEPYTFDINLSVNLKGEGMSQAATICKSNFKYMYWTMLQQLTHHSVNGCNLRPGDLLASGTISGPEPENFGSMLELSWKGTKPIDLGNGQTRKFLLDGDEVIITGYCQGDGYRIGFGQCAGKVLPALLPS
binding [3]: binds

B2: endogenous fumarylacetoacetate hydrolase (FAH) (enzyme, UniProt P16930 1-419)
chain: MSFIPVAEDSDFPIHNLPYGVFSTRGDPRPRIGVAIGDQILDLSIIKHLFTGPVLSKHQDVFNQPTLNSFMGLGQAAWKEARVFLQNLLSVSQARLRDDTELRKCAFISQASATMHLPATIGDYTDFYSSRQHATNVGIMFRDKENALMPNWLHLPVGYHGRASSVVVSGTPIRRPMGQMKPDDSKPPVYGACKLLDMELEMAFFVGPGNRLGEPIPISKAHEHIFGMVLMNDWSARDIQKWEYVPLGPFLGKSFGTTVSPWVVPMDALMPFAVPNPKQDPRPLPYLCHDEPYTFDINLSVNLKGEGMSQAATICKSNFKYMYWTMLQQLTHHSVNGCNLRPGDLLASGTISGPEPENFGSMLELSWKGTKPIDLGNGQTRKFLLDGDEVIITGYCQGDGYRIGFGQCAGKVLPALLPS
binding [4]: binds

Reference: publication PMC7699203
